For two molecules, binding results are on record in US20040123349A1 (published 2004).

The target in one experiment is T1, Myc-NAC1 (Arabidopsis, UniProt Q84TE6 1-324).
T1 construct: Product of the 35S-6xMyc-NAC1 transgene in Arabidopsis thaliana; immunoprecipitated with anti-Myc antibody; also called 6xMyc-NAC1; Myc-tagged NAC1; not shown: 6xMyc tag
T1 sequence (looked up): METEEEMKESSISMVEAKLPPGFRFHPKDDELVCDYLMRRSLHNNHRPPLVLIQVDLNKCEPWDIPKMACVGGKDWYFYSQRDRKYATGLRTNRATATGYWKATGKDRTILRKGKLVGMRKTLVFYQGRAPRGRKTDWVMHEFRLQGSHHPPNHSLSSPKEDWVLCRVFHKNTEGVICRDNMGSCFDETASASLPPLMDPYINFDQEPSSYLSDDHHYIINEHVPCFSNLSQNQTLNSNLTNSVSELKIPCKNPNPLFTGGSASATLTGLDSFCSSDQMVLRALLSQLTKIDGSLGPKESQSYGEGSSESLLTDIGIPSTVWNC
The experiment is described as follows: pull-down from extracts of transgenic plants, Western blot.

Experiment [1] deals with T2, SINAT5 (wildtype) (Arabidopsis thaliana) (UniProt Q8S3N1).
T2 sequence: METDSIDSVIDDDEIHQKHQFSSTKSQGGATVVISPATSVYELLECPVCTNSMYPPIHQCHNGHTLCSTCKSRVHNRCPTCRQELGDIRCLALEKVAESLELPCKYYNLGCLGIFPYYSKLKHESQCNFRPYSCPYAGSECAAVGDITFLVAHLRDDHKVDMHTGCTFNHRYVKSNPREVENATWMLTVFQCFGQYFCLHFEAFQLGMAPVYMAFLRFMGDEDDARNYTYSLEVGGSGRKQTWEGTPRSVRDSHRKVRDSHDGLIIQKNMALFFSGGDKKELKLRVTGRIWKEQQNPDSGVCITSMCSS
Nature of the experiment: in vitro pull-down on amylose resin, 35S-labelled in vitro translated SINAT5.

Experiment [2] deals with T3, in vitro translated NAC1 (Arabidopsis) (UniProt Q84TE6).
T3 sequence (looked up): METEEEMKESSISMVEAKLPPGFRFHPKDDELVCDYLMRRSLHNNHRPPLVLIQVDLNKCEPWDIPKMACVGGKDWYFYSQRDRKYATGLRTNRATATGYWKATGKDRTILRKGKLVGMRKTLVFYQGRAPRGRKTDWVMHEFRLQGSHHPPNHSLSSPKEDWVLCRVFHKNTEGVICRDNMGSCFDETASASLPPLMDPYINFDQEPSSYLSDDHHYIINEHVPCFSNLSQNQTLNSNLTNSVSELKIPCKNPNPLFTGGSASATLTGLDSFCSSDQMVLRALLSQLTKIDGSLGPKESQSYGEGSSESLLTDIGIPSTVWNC
Nature of the experiment: in vitro pull-down on amylose resin, 35S-labelled in vitro translated NAC1.

These are yes or no findings as the source states them, for the method shown. Binding seen in cells or lysates may run through a third protein. Some entries that bind do so weakly or less than the wild type. Where a sequence is shown, tags or fusion partners need not be part of it.

B1: SINAT5 (C49S) mutant (enzyme)
chain: METDSIDSVIDDDEIHQKHQFSSTKSQGGATVVISPATSVYELLECPVSTNSMYPPIHQCHNGHTLCSTCKSRVHNRCPTCRQELGDIRCLALEKVAESLELPCKYYNLGCLGIFPYYSKLKHESQCNFRPYSCPYAGSECAAVGDITFLVAHLRDDHKVDMHTGCTFNHRYVKSNPREVENATWMLTVFQCFGQYFCLHFEAFQLGMAPVYMAFLRFMGDEDDARNYTYSLEVGGSGRKQTWEGTPRSVRDSHRKVRDSHDGLIIQKNMALFFSGGDKKELKLRVTGRIWKEQQNPDSGVCITSMCSS
Turning to B1, the binding result in the experiment with Myc-NAC1 was “binds”.

B2: SINAT5 (wildtype) (enzyme)
chain: METDSIDSVIDDDEIHQKHQFSSTKSQGGATVVISPATSVYELLECPVCTNSMYPPIHQCHNGHTLCSTCKSRVHNRCPTCRQELGDIRCLALEKVAESLELPCKYYNLGCLGIFPYYSKLKHESQCNFRPYSCPYAGSECAAVGDITFLVAHLRDDHKVDMHTGCTFNHRYVKSNPREVENATWMLTVFQCFGQYFCLHFEAFQLGMAPVYMAFLRFMGDEDDARNYTYSLEVGGSGRKQTWEGTPRSVRDSHRKVRDSHDGLIIQKNMALFFSGGDKKELKLRVTGRIWKEQQNPDSGVCITSMCSS
notes: GenBank AF480944 is printed for the gene; also called WT SINAT5; SINA of Arabidopsis thaliana 5
As for B2, the binding result in experiment [1] and in experiment [2] was “binds” in each case.
